Data published in patent publication CN111320694A.
No constants are given. Whether binding was seen depends on the method and setting. Some results given as binding are weak or reduced against the parent protein; the word gives no strength.

The chains behind the UniProt entries cited, without tags or fusion partners. Residues count along the entry.
UniProt P51654, residues 25-559: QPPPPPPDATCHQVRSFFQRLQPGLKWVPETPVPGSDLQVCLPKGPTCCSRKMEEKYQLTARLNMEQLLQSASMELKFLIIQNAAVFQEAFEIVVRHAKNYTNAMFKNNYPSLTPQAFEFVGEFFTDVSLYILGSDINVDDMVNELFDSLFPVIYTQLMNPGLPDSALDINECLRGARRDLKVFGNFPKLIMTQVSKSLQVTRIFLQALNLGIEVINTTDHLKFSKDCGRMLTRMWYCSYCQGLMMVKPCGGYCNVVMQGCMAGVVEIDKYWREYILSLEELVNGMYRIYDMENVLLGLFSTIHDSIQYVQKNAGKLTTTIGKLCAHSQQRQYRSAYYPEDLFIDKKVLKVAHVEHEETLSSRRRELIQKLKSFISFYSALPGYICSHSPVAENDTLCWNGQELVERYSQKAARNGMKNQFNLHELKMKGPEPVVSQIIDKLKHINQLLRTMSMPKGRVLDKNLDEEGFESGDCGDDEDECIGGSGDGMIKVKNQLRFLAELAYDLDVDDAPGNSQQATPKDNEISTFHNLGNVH

Assays:
[1] = molecular target: GPC3蛋白 (Glypican 3 protein, recombinant) (UniProt P51654); test: sandwich phage ELISA, GPC3 captured by alpaca anti-GPC3 IgG; clone that gave GN2
[2] = molecular target: GPC3蛋白 (Glypican 3 protein, recombinant) (UniProt P51654); test: ELISA on coated GPC3 protein (1μg/mL), detection by HRP anti-HA, after heat treatment of GN2

B1: 纳米抗体GN2 (anti-GPC3 nanobody GN2) (VHH, not shown: small tags and cut ends)
VHH: QVQLVESGGGLVQPGGSLRLSCAASGFTLDAYAIGWFRQAPGKEREGVSYITSGTGTTLYADSVKGRFTISRDNAKNTVYLQMNSLKPEDTAVYFCTTLKRTTAGGWPIPGRIGGQGTQVTVSS
In the case of B1, the binding [1] is reported as “binds” and the binding [2] is reported as “binds”.
